For this assay, the target named is Flag-TRF1 (UniProt P54274). Kind of assay: co-IP; Flag-TRF1 with 2×Strep-PinX1 constructs, HeLa cell lysates.

Protein sequences, listed by entry. Tags and fused reporters are not part of them.
UniProt P54274: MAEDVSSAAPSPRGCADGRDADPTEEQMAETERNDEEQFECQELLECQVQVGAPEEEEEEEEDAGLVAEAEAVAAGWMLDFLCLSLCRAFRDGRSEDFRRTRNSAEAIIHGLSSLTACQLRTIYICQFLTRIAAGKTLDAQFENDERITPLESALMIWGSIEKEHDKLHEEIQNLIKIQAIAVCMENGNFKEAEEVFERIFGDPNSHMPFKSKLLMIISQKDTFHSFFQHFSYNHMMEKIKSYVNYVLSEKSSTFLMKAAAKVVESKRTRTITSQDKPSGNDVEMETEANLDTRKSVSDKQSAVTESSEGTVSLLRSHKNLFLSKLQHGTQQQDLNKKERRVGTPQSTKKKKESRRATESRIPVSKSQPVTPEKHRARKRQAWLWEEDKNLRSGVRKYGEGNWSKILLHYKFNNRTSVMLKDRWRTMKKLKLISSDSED

Changes are numbered by the printed parent chain. These are yes or no findings as the source states them, for the method shown. Binding seen in cells or lysates may run through a third protein. Some entries that bind do so weakly or less than the wild type.

B1: 2×Strep-PinX1(2-328) (protein, UniProt Q96BK5 2-328)
chain: SMLAERRRKQKWAVDPQNTAWSNDDSKFGQRMLEKMGWSKGKGLGAQEQGATDHIKVQVKNNHLGLGATINNEDNWIAHQDDFNQLLAELNTCHGQETTDSSDKKEKKSFSLEEKSKISKNRVHYMKFTKGKDLSSRSKTDLDCIFGKRQSKKTPEGDASPSTPEENETTTTSAFTIQEYFAKRMAALKNKPQVPVPGSDISETQVERKRGKKRNKEATGKDVESYLQPKAKRHTEGKPERAEAQERVAKKKSAPAEEQLRGPCWDQSSKASAQDAGDHVQPPEGRDFTLKPKKRRGKKKLQKPVEIAEDATLEETLVKKKKKKDSK
For the molecule B1, the binding entry is on record as “binds”.

B2: 2×Strep-PinX1(2-328 (MUT292-301)) (protein, UniProt Q96BK5 2-328)
chain: B1 chain with K291A, K293L, K294G, K298V, K299Q, K300S
Consider B2, for which the binding entry is on record as “binds”.

The values are drawn from article PMC11615109, “PinX1 suppresses cancer progression by inhibiting telomerase activity in cervical squamous cell carcinoma and endocervical adenocarcinoma” (Genes & Diseases, 2024).
